Some entries share one result that the patent states for a list of compounds. Some ranges recur; such a range may be that of the whole group of compounds.
assay: Stopped-flow kinetic analysis of catalytic dismutation of superoxide; type: biochemical; details: catalytic rate constant for dismutation of superoxide, pH 8.1 and 21°C
Text: Stopped-flow kinetic analysis is an accurate and direct method for quantitatively monitoring the decay rates of superoxide in water.
For the attainment of consistent and accurate measurements all reagents were biologically clean and metal-free. To achieve this, all buffers (Calbiochem) were biological grade, metal-free buffers and were handled with utensils which had been washed first with 0.1 N HCl, followed by purified water, followed by a rinse in a 10^-4 M EDTA bath at pH 8, followed by a rinse with purified water and dried at 65°C for several hours. Dry DMSO solutions of potassium superoxide (Aldrich) were prepared under a dry, inert atmosphere of argon in a Vacuum Atmospheres dry glovebox using dried glassware. The DMSO solutions were prepared immediately before every stopped-flow experiment. A mortar and pestle were used to grind the yellow solid potassium superoxide (~100 mg). The powder was then ground with a few drops of DMSO and the slurry transferred to a flask containing an additional 25 ml of DMSO. The resultant slurry was stirred for 1/2 h and then filtered. […] These solutions were transferred to a glovebag under nitrogen in sealed vials prior to loading the syringe under nitrogen. It should be noted that the DMSO/superoxide solutions are extremely sensitive to water, heat, air, and extraneous metals. A fresh, pure solution has a very slight yellowish tint.
Water for buffer solutions was delivered from an in-house deionized water system to a Barnstead Nanopure Ultrapure Series 550 water system and then double distilled, first from alkaline potassium permanganate and then from a dilute EDTA solution. For example, a solution containing 1.0 g of potassium permanganate, 2 liters of water and additional sodium hydroxide necessary to bring the pH to 9.0 were added to a […] fitted with a solvent distillation head. This distillation will oxidize any trace of organic compounds in the water. The final distillation was carried out under nitrogen in a 2.5-liter flask containing 1500 ml of water from the first still and 1.0 x 10^-6M EDTA. This step will remove remaining trace metals from the ultrapure water. To prevent EDTA mist from volatilizing over the reflux arm to the still head, the 40-cm vertical arm was packed with glass beads and wrapped with insulation. This system produces deoxygenated water that can be measured to have a conductivity of less than 2.0 nanomhos/cm^2.
The stopped-flow spectrometer system was designed and manufactured by Kinetic Instruments Inc. (Ann Arbor, MI) and was interfaced to a MAC IICX personal computer. The software for the stopped-flow analysis was provided by Kinetics Instrument Inc. and was written in QuickBasic with MacAdios drivers. Typical injector volumes (0.10 ml of buffer and 0.006 ml of DMSO) were calibrated so that a large excess of water over the DMSO solution were mixed together. […] Aqueous solutions to be mixed with the DMSO solution of superoxide were prepared using 80 mM concentrations of the Hepes buffer, pH 8.1 (free acid + Na form). One of the reservoir syringes was filled with 5 ml of the DMSO solution while the other was filled with 5 ml of the aqueous buffer solution. The entire injection block, mixer, and spectrometer cell were immersed in a thermostatted circulating water bath with a temperature of 21.0 ± 0.5°C.
Prior to initiating data collection for a superoxide decay, a baseline average was obtained by injecting several shots of the buffer and DMSO solutions into the mixing chamber. These shots were averaged and stored as the baseline.

Row | Substance | kCAT
1 | [Manganese(II)nitrate(1,4,7,10,13-pentaazacyclopentadecane)] Nitrate [Example 9] | 4.6e+06 to 3.44e+07 M⁻¹ s⁻¹

same assay, conditions: stopped-flow kinetic analysis

Row | Substance | SOD activity (catalysis of the dismutation of superoxide), in words
2 | Manganese(II)(2,12-Dimethyl-3,7,11,17-tetraazabicyclo[11.3.1]heptadeca-1(17),2,11,13,15 -pentaenel] Chloride [Example 23, reference compound] | do not catalyze the dismutation of superoxide
3 | [Manganese(II)(2,7,12-Trimethyl-3,7,11,17-tetraazabicyclo[11.3.1]heptadeca-1(17),2, 11,13,15-pentaene)] Chloride [Example 24, reference compound] | do not catalyze the dismutation of superoxide
4 | [Manganese(II)(2,13-Dimethyl-3,6,9,12,18-pentaazabicyclo[12.3.1]octadeca-1(18)2,12,14,16 -pentaene)]Chloride [Example 26, reference compound] | do not catalyze the dismutation of superoxide
5 | [Manganese(II)(5,7,7,12,14,14-Hexamethyl-1,4,8,11-tetraazacyclotetradeca-4,11-diene)] Chloride [Example 22, reference compound] | do not catalyze the dismutation of superoxide
6 | [Manganese(II)nitrate(1,4,7,10,13-pentaazacyclopentadecane)] Nitrate [Example 9] | effective as catalysts for the dismutation of superoxide

From patent EP0598753B1, “MANGANESE COMPLEXES OF NITROGEN-CONTAINING MACROCYCLIC LIGANDS EFFECTIVE AS CATALYSTS FOR DISMUTATING SUPEROXIDE” (MONSANTO COMPANY, priority 1991, dated 1993)
